Results as given in PMC7504531.

The chains behind the UniProt entries cited, without tags or fusion partners. Where a name states a change or a piece, a line headed by the entry shows the natural chain unless it says otherwise.
UniProt Q9M0L8: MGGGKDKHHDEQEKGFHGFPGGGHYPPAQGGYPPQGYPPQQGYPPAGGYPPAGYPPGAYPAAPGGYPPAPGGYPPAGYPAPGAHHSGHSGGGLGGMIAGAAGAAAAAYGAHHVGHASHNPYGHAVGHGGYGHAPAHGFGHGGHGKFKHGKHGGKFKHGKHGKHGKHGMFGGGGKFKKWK

Molecular target: AtGPRP3 fused to cCFP for BiFC (Arabidopsis thaliana) (UniProt Q9M0L8)
Experiment: split reporter; BiFC in Arabidopsis protoplasts; AtGPRP3-cCFP cotransformed with CAT1, CAT2 or CAT3 fused to nVenus; confocal microscopy

binding	Binder
binds	CAT3 fused to nVenus for BiFC (enzyme, UniProt Q42547 1-492) MDPYKYRPSSAYNAPFYTTNGGAPVSNNISSLTIGERGPVLLEDYHLIEKVANFTRERIPERVVHARGISAKGFFEVTHDISNLTCADFLRAPGVQTPVIVRFSTVVHERASPETMRDIRGFAVKFYTREGNFDLVGNNTPVFFIRDGIQFPDVVHALKPNPKTNIQEYWRILDYMSHLPESLLTWCWMFDDVGIPQDYRHMEGFGVHTYTLIAKSGKVLFVKFHWKPTCGIKNLTDEEAKVVGGANHSHATKDLHDAIASGNYPEWKLFIQTMDPADEDKFDFDPLDVTKIWPEDILPLQPVGRLVLNRTIDNFFNETEQLAFNPGLVVPGIYYSDDKLLQCRIFAYGDTQRHRLGPNYLQLPVNAPKCAHHNNHHEGFMNFMHRDEEINYYPSKFDPVRCAEKVPTPTNSYTGIRTKCVIKKENNFKQAGDRYRSWAPDRQDRFVKRWVEILSEPRLTHEIRGIWISYWSQADRSLGQKLASRLNVRPSI
binds	CAT2 fused to nVenus for BiFC (enzyme, UniProt P25819 1-492) MDPYKYRPASSYNSPFFTTNSGAPVWNNNSSMTVGPRGPILLEDYHLVEKLANFDRERIPERVVHARGASAKGFFEVTHDISNLTCADFLRAPGVQTPVIVRFSTVIHERGSPETLRDPRGFAVKFYTREGNFDLVGNNFPVFFIRDGMKFPDMVHALKPNPKSHIQENWRILDFFSHHPESLNMFTFLFDDIGIPQDYRHMDGSGVNTYMLINKAGKAHYVKFHWKPTCGVKSLLEEDAIRVGGTNHSHATQDLYDSIAAGNYPEWKLFIQIIDPADEDKFDFDPLDVTKTWPEDILPLQPVGRMVLNKNIDNFFAENEQLAFCPAIIVPGIHYSDDKLLQTRVFSYADTQRHRLGPNYLQLPVNAPKCAHHNNHHEGFMNFMHRDEEVNYFPSRYDQVRHAEKYPTPPAVCSGKRERCIIEKENNFKEPGERYRTFTPERQERFIQRWIDALSDPRITHEIRSIWISYWSQADKSLGQKLASRLNVRPSI

These are yes or no findings as the source states them, for the method shown. Binding seen in cells or lysates may run through a third protein. A result given as binding can be weak or reduced; the word gives no strength. Where a sequence is shown, tags or fusion partners need not be part of it.
